Results taken from PubChem BioAssay AID540256 (National Center for Advancing Translational Sciences (NCATS), 2011).
The campaign covered roughly 300,000 compounds. About 3,700 (1.2%) were called active. Inconclusive results, whose numbers are uncertain, are shown with a selection of clear calls. Calls come from the whole dose curve; tested in HEK293 cells. Potencies beside an inconclusive call are fits to weak or partial responses and may not hold up.

Assay: qHTS for Inhibitors of binding or entry into cells for Lassa Virus; note: nearly all actives have a fitted effect of over 50% in size
Conditions: Lassa virus pseudotype entry inhibition, cell reporter; series mostly up to 37.9 µM
Potency is the fitted concentration of half-maximal effect.

| Structure (SMILES) | Potency |
| --- | --- |
| Cc1ccc(Cl)cc1N1CCN(C(=O)c2cc(S(=O)(=O)N3CCCCC3)cn2C)CC1 | inactive |
| CCOc1ccc2c(-c3ccnc(Nc4cc(OC)cc(C(F)(F)F)c4)n3)cnn2n1 | inconclusive: 12.5 µM [inhibitor, partial curve, poor fit] |
| Cc1ccc(C(=O)NC(=S)Nc2cccc(-c3nc4ccccc4s3)c2)cc1 | inconclusive: 22.4 µM [activator, single point] |
| O=C(c1cc2ccccc2oc1=O)N(Cc1ccco1)CC1CCCO1 (stereo not drawn) | inconclusive: 29.1 µM [activator, single point] |
| CS(=O)(=O)N1CCN(c2ccccc2NC(=O)c2ccc([N+](=O)[O-])o2)CC1 | inconclusive: 11.2 µM [inhibitor, partial curve] |
| CCn1c(=O)cc(SCC(=O)NCc2ccc(C)o2)c2ccccc21 | inactive |
| O=c1oc2cc(Oc3ccc(C(F)(F)F)cc3[N+](=O)[O-])ccc2c2c1CCCC2 | inconclusive: 1.12 µM [inhibitor, full curve, poor fit] |
| CCc1nnc(NC(=O)c2ccc(OC)cc2OC)s1 | inconclusive: 9.2 µM [inhibitor, partial curve, poor fit] |
| Cc1ccsc1/C=N/NC(=O)c1cccs1 | inconclusive: 1.78 µM [activator, partial curve, poor fit] |
| CC(NC(=O)c1ccc(F)cc1)c1ccc(F)cc1 (stereo not drawn) | inconclusive: 8.2 µM [inhibitor, partial curve, poor fit] |
| CCc1ccc(-c2cc(C(F)(F)F)n3nc(C(=O)Nc4cnn(Cc5ccc(C)cc5)c4)cc3n2)s1 | inconclusive: 23.1 µM [inhibitor, single point] |
| CCCCCC1CC1C(=O)N/N=C/c1ccc(N(C)C)cc1 (stereo not drawn) | active: 0.461 µM |
| COc1ccc(NC(=O)CN(C)C(=O)Cc2c(C)nc3ccccc3c2C)cc1 | inconclusive: 35.5 µM [inhibitor, single point] |
| CC(Oc1ccc(-c2ccccc2)c(F)c1)c1ccn(S(=O)(=O)c2cccc3ccccc23)n1 (stereo not drawn) | inconclusive: 35.5 µM [inhibitor, partial curve, poor fit] |
| O=S(=O)(Nc1ccc(O)c2ccccc12)c1cccs1 | inconclusive: 35.5 µM [inhibitor, single point] |
| O=C(O)/C=C/c1ccc(S(=O)(=O)Nc2ccc(C(=O)NCC(=O)O)cc2)cc1 | inactive |
| C=CCNC(=O)CN(c1cc(Cl)ccc1OC)S(=O)(=O)c1ccc(C)c([N+](=O)[O-])c1 | inactive |
| Cc1nc(Cl)c(C(=O)NC(=O)Nc2cccc(C(F)(F)F)c2)c(C)c1[N+](=O)[O-] | inconclusive: 14.1 µM [inhibitor, single point] |
| COc1ccccc1C(=O)N(Cc1ccco1)Cc1ccccc1F | inactive |
| COc1ccc(Cl)cc1NC(=O)CN1C(=O)CSc2ccc(S(=O)(=O)N3CCCC3)cc21 | inactive |
| Cc1cccc(N2CCN(C(=O)/C=C/c3cccs3)CC2C)c1 (stereo not drawn) | inconclusive: 35.5 µM [inhibitor, single point] |
| O=C(/C=C/c1ccco1)NC1=NCCS1 | inconclusive: 16.4 µM [activator, partial curve] |
| COc1cccc(Oc2coc3cc(OC(=O)N4CCOCC4)ccc3c2=O)c1 | inactive |

Another view of two compounds above:
CCc1ccc(-c2cc(C(F)(F)F)n3nc(C(=O)Nc4cnn(Cc5ccc(C)cc5)c4)cc3n2)s1
  Potency: inconclusive: 23.1 µM [inhibitor, single point]
CCCCCC1CC1C(=O)N/N=C/c1ccc(N(C)C)cc1 (stereo not drawn)
  Potency: active: 0.461 µM

Further structures:

| Structure (SMILES) | Potency |
| --- | --- |
| O=P(c1ccccc1)(c1ccccc1)C(O)c1ccncc1 (stereo not drawn) | inconclusive: 25.9 µM [activator, single point] |
| Cn1c(=O)c(C(=O)CN2CCc3ccccc32)c(N)n(Cc2ccccc2)c1=O | inconclusive: 1 µM [inhibitor, single point] |
| Cc1ccc(CNC(=O)C2CCC(=O)N(CC3CCCCC3)C2)o1 (stereo not drawn) | inconclusive: 1 µM [inhibitor, single point] |
| CCOc1ccc(C=O)cc1CN1CCCCC1 | inconclusive: 35.5 µM [activator, single point] |
| CCN(CC)c1ccc(CN(C(=O)c2cccs2)C2CCS(=O)(=O)C2)cc1 (stereo not drawn) | inconclusive: 2.82 µM [inhibitor, partial curve, poor fit] |
| CCOP(=O)(OCC)C(Nc1cccc(C(F)(F)F)c1)c1ccc(Br)cc1 (stereo not drawn) | inconclusive: 23.1 µM [inhibitor, single point] |
| Cc1ccc(-n2c(=O)[nH]c3sc4c(c3c2=O)CCCC4)cc1 | inactive |
| O=S(=O)(c1ccc(Cl)cc1)c1nnn2c1nc(NCc1ccccc1)c1sccc12 | inactive |
| CC(=O)Nc1ccccc1-c1nc2ccccc2n(C(C)C(=O)Nc2cccc(C)c2C)c1=O (stereo not drawn) | inactive |
| CCc1ccc(CN(Cc2ccco2)C(=O)c2ccc(C)cc2)cc1 | inconclusive: 8.91 µM [inhibitor, single point] |
| Cc1ccc(S(=O)(=O)n2nc(C)c(S(=O)(=O)N3CCCCC3)c2C)cc1 | inconclusive: 28.2 µM [activator, single point] |
| Cc1ccc2c(NC(=S)NC(=O)c3ccccc3)cccc2n1 | inconclusive: 14.1 µM [inhibitor, single point] |
| Fc1ccc(/C=N/Nc2cc(N3CCOCC3)ncn2)cc1 | inconclusive: 5.62 µM [inhibitor, single point] |
| Oc1ccc(CN2CCN(c3ccccc3)CC2)c2cccnc12 | inconclusive: 29.1 µM [inhibitor, single point] |
| CSc1ccc(/C=C/c2nc3ccccc3n2S(=O)(=O)c2ccc(F)c(C)c2)cc1 | inconclusive: 35.5 µM [inhibitor, single point] |
| CCOc1ccc(/C=C(\C#N)C(=O)NC2CC2)c(OCC)c1 | inconclusive: 3.16 µM [inhibitor, single point] |
| CCOc1ccc(NC(=O)CCc2c(C)nc3c(c(C)nn3-c3ccccc3)c2C)cc1 | inconclusive: 1.12 µM [activator, full curve, poor fit] |
| CCOc1ccc(NC(=O)CC2C(=O)N(c3cccc(C)c3)C(=O)N2CCC2=CCCCC2)cc1 (stereo not drawn) | inconclusive: 35.5 µM [inhibitor, partial curve, poor fit] |
| CNC(=O)NC(=O)C(C)OC(=O)CCCSc1nc2ccccc2s1 (stereo not drawn) | inconclusive: 11.2 µM [inhibitor, partial curve, poor fit] |
| O=C(NCC(=O)N(c1cccc(F)c1)C(C(=O)NC1CCCC1)c1ccncc1)c1cccs1 (stereo not drawn) | inconclusive: 0.355 µM [inhibitor, partial curve, poor fit] |
| CCOc1ccc(CC(=O)Nc2sc(Cc3ccccc3)cc2C(N)=O)cc1OCC | inactive |
| CCN1C(=O)c2ccccc2S(=O)c2ccc(C(=O)NCCN(CC(C)C)CC(C)C)cc21 (stereo not drawn) | inconclusive: 35.5 µM [inhibitor, partial curve, poor fit] |
| O=C(O)Cn1nnc(COc2ccccc2)n1 | inactive |

| Structure (SMILES) | Potency |
| --- | --- |
| CC1=C([N+](=O)[O-])C(c2cccc(Br)c2)C2=C(N1)c1ccccc1C2=O (stereo not drawn) | inconclusive: 0.517 µM [inhibitor, full curve] |
| CC(=O)OC(C(=O)N1CCN(c2ccc(F)cc2)CC1)c1ccccc1 (stereo not drawn) | inactive |
| C[n+]1c(-c2ccccc2)cc2c(=Cc3ccccc3)c3ccccc3n21 | active: 7.94 µM |
| CC(=O)N1CCCC1c1nc2ccccc2n1Cc1cc(C)ccc1C (stereo not drawn) | inactive |
| CCOC(=O)N1CCN(S(=O)(=O)N2CCCC(C(=O)NCc3ccccc3OC)C2)CC1 (stereo not drawn) | inconclusive: 1.58 µM [inhibitor, full curve, poor fit] |
| Cc1ccc2ccc3cc(C(=O)Nc4ccc(C)c(F)c4)nc3c2[nH]1 | inconclusive: 17.8 µM [inhibitor, single point] |
| O=C(CNc1ccccc1Cl)c1ccc(Br)cc1 | inconclusive: 35.5 µM [inhibitor, single point] |
| O=C1C2C3C=CC(C3)C2C(=O)N1c1ccccc1OS(=O)(=O)c1ccccc1 (stereo not drawn) | inconclusive: 0.708 µM [inhibitor, single point] |
| COC(=O)C1=C(C)N(Cc2ccc(C)cc2)C(=O)/C1=C\c1cc(OC)c(OC)c(OC)c1 | inconclusive: 35.5 µM [inhibitor, single point] |
| CCOCCCNC(=O)C(NC(=O)CNC(C)=O)c1ccc(C)cc1 (stereo not drawn) | inconclusive: 29.1 µM [activator, single point] |
| CN(C)c1ccc(-c2noc(-c3ccccc3O)n2)cc1 | active: 5.8 µM |
| O=C(CSc1nncc2ccccc12)N1CCOCC1 | inactive |
| CCC(C(=O)N(C)Cc1ccccc1)n1nc(C)c2sc3ccccc3c2c1=O (stereo not drawn) | inactive |
| CC(=O)c1c(C)[nH]c(C(=O)Nc2ccc(C)cn2)c1C | active: 2.06 µM |
| COCCn1c(C)cc(C(=O)COc2ccc(N(C)S(=O)(=O)c3ccc(C)cc3)cc2)c1C | inconclusive: 20 µM [inhibitor, partial curve, poor fit] |
| CC1CCN(c2ccc(C(=O)NCc3ccco3)cc2[N+](=O)[O-])CC1 | active: 6.51 µM |
| Cc1cccc(NC(=O)CSc2nc(C)c(Cc3ccccc3)c(=O)[nH]2)c1C | inactive |
| COCc1ccc(CN2CCC(n3nccc3NC(=O)CCOc3ccccc3)CC2)o1 | inactive |
| CCc1cc(C(=O)N(CCCOC)c2c(N)n(Cc3ccccc3)c(=O)[nH]c2=O)sc1C | inconclusive: 35.5 µM [inhibitor, single point] |
| CCNS(=O)(=O)c1cc(OC)c(Cl)cc1OC | inconclusive: 5.17 µM [activator, partial curve, poor fit] |
| Cc1ccc(CNC(=O)c2cc(Sc3ccc(F)cc3F)nc3ccccc23)cc1 | inconclusive: 35.5 µM [activator, single point] |
| O=C(c1ccccc1)c1c[nH]c(C(=O)NNc2ccccc2)c1 | inconclusive: 3.98 µM [inhibitor, full curve] |
